# Results as given in US20020177193A1.
# Amino acid sequences for entries named in this document (tags omitted). A change or cut given only in a name is not applied to a line headed by its entry. Residues count along the entry.
# UniProt P16234, residues 24-524: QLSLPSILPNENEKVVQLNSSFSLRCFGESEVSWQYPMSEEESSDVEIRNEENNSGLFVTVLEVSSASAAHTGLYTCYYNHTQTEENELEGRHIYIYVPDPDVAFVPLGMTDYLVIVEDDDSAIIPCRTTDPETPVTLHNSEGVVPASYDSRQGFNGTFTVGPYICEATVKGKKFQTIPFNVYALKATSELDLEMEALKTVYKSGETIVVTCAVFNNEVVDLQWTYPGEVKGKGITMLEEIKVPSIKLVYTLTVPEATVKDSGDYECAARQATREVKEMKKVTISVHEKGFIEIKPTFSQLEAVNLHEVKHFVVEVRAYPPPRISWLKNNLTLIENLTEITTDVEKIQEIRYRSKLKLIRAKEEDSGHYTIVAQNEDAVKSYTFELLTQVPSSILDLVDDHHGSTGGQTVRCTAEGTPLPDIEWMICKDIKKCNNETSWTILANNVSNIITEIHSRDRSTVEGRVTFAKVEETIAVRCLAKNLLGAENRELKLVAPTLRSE
# UniProt Q9NRA1: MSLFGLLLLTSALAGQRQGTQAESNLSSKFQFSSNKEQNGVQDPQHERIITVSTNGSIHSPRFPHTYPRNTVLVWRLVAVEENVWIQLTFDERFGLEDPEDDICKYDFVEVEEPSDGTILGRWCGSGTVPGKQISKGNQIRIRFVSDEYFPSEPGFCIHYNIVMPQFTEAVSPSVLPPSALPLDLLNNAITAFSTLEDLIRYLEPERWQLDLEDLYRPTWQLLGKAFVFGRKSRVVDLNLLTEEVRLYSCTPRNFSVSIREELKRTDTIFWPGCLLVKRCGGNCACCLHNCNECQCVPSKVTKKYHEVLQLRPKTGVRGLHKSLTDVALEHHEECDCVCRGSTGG
# No constants are given. Whether binding was seen depends on the method and setting. Some binding calls cover weakened binding; strength is not graded here.
# Target: PDGF receptor α (R&D Systems) (UniProt P16234)
# Experiment: 10 ng/mL 125I-zvegf3 on cultured cells, with unlabelled zvegf3, VEGF, PDGF-BB, PDGF receptor α or PDGF receptor β-Fc as competitors; gamma counting
substance,measurement,value
"recombinant zvegf3 growth factor domain (residues 235-345 of SEQ ID NO: 2), produced in BHK 570 cells (from UniProt Q9NRA1 235-345) (ligand)",binding,binds
